In article doi:10.1101/2025.02.15.638389:
Results are given in words; binding and its absence hold for the method and conditions named. Some binding calls cover weakened binding; strength is not graded here.

Sequences of proteins named here, by UniProt entry; tags and fusion partners are left off.
UniProt Q96RU7: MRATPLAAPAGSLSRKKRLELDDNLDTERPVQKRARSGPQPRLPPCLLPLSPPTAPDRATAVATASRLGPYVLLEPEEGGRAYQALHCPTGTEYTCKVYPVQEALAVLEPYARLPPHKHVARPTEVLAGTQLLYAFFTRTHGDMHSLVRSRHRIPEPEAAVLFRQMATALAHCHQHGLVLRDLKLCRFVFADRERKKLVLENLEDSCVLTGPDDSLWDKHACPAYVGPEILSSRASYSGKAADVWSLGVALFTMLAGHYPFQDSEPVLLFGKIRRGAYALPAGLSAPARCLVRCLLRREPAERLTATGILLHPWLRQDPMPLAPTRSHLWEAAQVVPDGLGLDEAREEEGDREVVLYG

Molecular target: TRIB3 protein (BLI) (UniProt Q96RU7)
Assay: BLI

binding: binds
Binder: WSFGILLTELTTKG [Peptide S1-2]
